# Percent effect of library compounds

The chains behind the UniProt entries cited, without tags or fusion partners. Residues count along the entry.
UniProt A4I591, 1-473: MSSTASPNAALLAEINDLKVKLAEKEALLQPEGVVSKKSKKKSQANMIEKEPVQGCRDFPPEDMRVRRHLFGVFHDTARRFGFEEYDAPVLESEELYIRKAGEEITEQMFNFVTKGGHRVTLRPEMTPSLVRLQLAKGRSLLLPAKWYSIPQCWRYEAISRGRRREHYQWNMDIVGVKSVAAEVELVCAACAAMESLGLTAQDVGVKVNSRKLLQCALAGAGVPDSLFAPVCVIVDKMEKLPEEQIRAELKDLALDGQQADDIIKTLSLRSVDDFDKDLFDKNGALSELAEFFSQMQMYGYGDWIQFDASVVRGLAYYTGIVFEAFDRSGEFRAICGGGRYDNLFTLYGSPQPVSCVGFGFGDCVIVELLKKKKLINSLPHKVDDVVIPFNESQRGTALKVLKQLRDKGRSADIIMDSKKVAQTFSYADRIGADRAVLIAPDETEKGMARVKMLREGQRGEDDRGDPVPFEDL
UniProt P9WNZ1, whole entry: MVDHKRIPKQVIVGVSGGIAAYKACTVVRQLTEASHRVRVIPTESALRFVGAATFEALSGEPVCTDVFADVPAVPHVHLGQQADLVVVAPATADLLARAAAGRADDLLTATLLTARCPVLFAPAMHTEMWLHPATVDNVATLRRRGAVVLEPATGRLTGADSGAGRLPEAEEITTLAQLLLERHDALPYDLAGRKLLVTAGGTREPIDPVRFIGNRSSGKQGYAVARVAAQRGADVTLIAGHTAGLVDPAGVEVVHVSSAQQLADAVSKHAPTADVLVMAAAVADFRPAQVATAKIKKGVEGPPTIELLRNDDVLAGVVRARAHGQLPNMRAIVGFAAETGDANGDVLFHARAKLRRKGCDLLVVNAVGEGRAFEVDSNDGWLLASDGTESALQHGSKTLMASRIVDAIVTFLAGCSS

Each number is a percent effect as filed.
The record does not define 0% and 100%; most values in the screen are far below 50% and negative numbers occur (in some assays of this library far below -100).
The compounds are a random part of those screened.
Two or more numbers in one place are separate tests of the same structure; such repeats can differ widely.
A dash means the value is not listed here; it may have been measured.

LiHisRS: 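Enzyme assay of histidyl-tRNA synthetase; the read-out is not stated. Target: Histidine-tRNA ligase, Leishmania infantum (UniProt A4I591). Compounds at 30 µM. Higher reads as stronger inhibition (inferred: compounds with an IC50 in retests scored well above the rest). The assay is labelled LdHisRS but filed under L. infantum. About 69,000 compounds were tested under these conditions; 0.6% (about 410) showed 50% or more at least once.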
Leishmania in macrophages: 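Cell assay of Leishmania donovani living inside macrophages; the read-out is not stated. Concentration: 30 µM. Higher reads as stronger inhibition (inferred: compounds with an IC50 in retests scored well above the rest). Size under these conditions: about 69,000 compounds, about 1,000 of them at 50% or above in at least one test.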
CoaBC: 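Enzyme assay of CoaBC with a phosphate dye (Biomol Green) read at 650 nm. Target: Coenzyme A biosynthesis protein CoaBC, Mycobacterium tuberculosis (UniProt P9WNZ1). Tested at 30 µM. Direction is inferred from only a few compounds that gave an IC50; most scored high, so higher reads as stronger inhibition. Most strong results did not repeat in a second test. About 67,000 compounds were tested under these conditions; 0.06% (about 40) showed 50% or more at least once.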

| structure | LiHisRS | Leishmania in macrophages | CoaBC |
|---|---|---|---|
| `CCCN1CCC(NC(=O)Nc2ccc(OC)c(OC)c2)CC1` | 1.333% | 8.2% | -1.24% |
| `Cc1cccc(OCCC(=O)N2CCCN(C(N)=O)CC2)c1C` | -3.371% | -2.391% | 0.2571% |
| `NC(=O)CN1CCCN(C(=O)c2ccn(-c3cccc(F)c3)n2)CC1` | 20.19% | 15.06% | 5.485% |
| `OCC1CCCN1c1cc(NCc2ccccn2)ncn1` (centres undefined) | 30.12% | 50.11% | 3.924% |
| `CCN1CCC2(CN(C(C)=O)CC23CCN(CC2CC2)CC3)C1=O.O=C(O)C(F)(F)F` (centres undefined) | - | 2.547% | - |
| `CN(C)CCN(Cc1ccc(C#N)cc1)C(=O)c1ccn(C)c(=O)c1` | 3.54% | 22.85% | -1.635% |
| `Cn1cccc1CN1CCC2(CC1)CN(c1ccccc1)C(=O)CO2.O=C(O)C(F)(F)F` | - | 6.382% | - |
| `Cc1ccc(CN[C@@H]2CO[C@H](CNS(=O)(=O)c3ccccc3)[C@H]2O)cc1` | 4.054% | 11.22% | 4.194% |
| `COc1ncnc(N(C)C)c1NC(=O)c1cscc1C` | 4.464% | -11.68% | 11.11% |
| `CN(C)C1COC2(CCN(C(=O)c3cccnc3)CC2)C1` (centres undefined) | 15.53% | 1.397% | 3.308% |
| `NC(=O)Cn1cc(NC(=O)N2CCC(c3ccccc3)CC2)cn1` | 16.51% | 15.02% | 3.581% |
| `CCS(=O)(=O)CCNC1CCN(c2nc3ccc(Cl)cc3s2)CC1` | 15.87% | 66.16% | -2.484% |
| `c1cc(C[C@H]2[C@H](N3CCOCC3)CCN2Cc2ccoc2)ccn1` | 22.22% | 15.87% | 3.226% |
| `Cc1cc2nc(C(C)C)cc(NCCc3cccn3C)n2n1` | 45.05% | -9.544% | 4.578% |
| `O=c1n(CCSCc2ccccc2Br)nc2ccccn12` | 9.917% | 9.011% | 9.719% |
| `Cc1ccnc(OC[C@@]23CCO[C@@H]2CCN(c2ncccn2)C3)n1` | 0% | - | -16.9% |
| `CCc1nc(-c2ccc(NC(=O)N3CCC4(CC3)OCCO4)cc2)no1` | 23.68% | 27.49% and 17.17% | 0% |
| `[H][C@]12CC[C@]([H])(CN(C3Cc4ccccc4C3)C1)N(Cc1cc(CC)no1)C2` | - | 43.88% | - |
| `O=S(=O)(NCc1ccccc1Cn1cncn1)N1CCCCCC1` | 12.28% | 10.77% | -1.863% |
| `CCCC(=O)N1CCOC2(COCCN(CC(=O)NC)C2)C1.O=C(O)C(F)(F)F` (centres undefined) | - | -9.456% | - |
| `O=C(c1cccnc1O)N1CCC(COc2ccccc2)CC1` | 10.83% | 15.03% | - |
| `OC(COCc1ccccc1Cl)CN1CCC(c2ccn[nH]2)CC1` (centres undefined) | 6.78% | 17.67% | 0% |
| `Cc1cc(CN(C)S(=O)(=O)N2CCCC2c2ccc(C)o2)no1` (centres undefined) | 0% | -33.97% and 0.6413% | 2.29% |
| `CC(=O)N1CCN(Cc2csc(-c3cnn(C)c3)n2)CC1` | 26.4% | 12.23% | 2.128% |
| `CC(C)CN1CCN(C)C2(CCN(Cc3ccsc3)CC2)C1=O.O=C(O)C(F)(F)F.O=C(O)C(F)(F)F` | - | 43.37% | - |
| `CNC1CCCN(Cc2noc(C3CC3)n2)C1.Cl` (centres undefined) | - | 22.9% | - |
| `Cc1cc(C(=O)N2CCC3(CCN3Cc3ccc(F)cc3)C2)no1.O=C(O)C(F)(F)F` (centres undefined) | - | 6.728% | - |
| `CC(=O)N1CCO[C@@H]2CN(C(=O)NCc3cccnc3)CC[C@@H]2C1` | 18% | - | -0.6148% |
| `Cc1ccc2c(-c3nc4c([nH]3)CCNC4C(=O)O)cccc2n1` (centres undefined) | 13.54% | 0.0129% | 14.14% |
| `COc1c(CNC(c2ccc(F)cc2)C(C)(C)C)c(C)nn1C` (centres undefined) | 16.8% | -3.58% | 1.596% |
| `CCCOCC1CCN(C(=O)c2cnc(-c3cccnc3)nc2O)C1` (centres undefined) | 9.836% | 9.764% | 11.04% |
| `Cc1cc(C)n(C2CCCN(C(=O)CCNS(C)(=O)=O)C2)n1` (centres undefined) | 18.92% | -0.9501% | 3.133% |
| `Cc1noc(C)c1CN1CCc2ncnc(-c3ccncc3)c2CC1.O=C(O)C(F)(F)F.O=C(O)C(F)(F)F` | - | 40.08% | - |
| `COc1c(F)cccc1C(=O)N(C)Cc1nc(-c2ccccn2)no1` | 10.53% | 21.95% | 1.089% |
| `[H][C@@]12CCN(C(=O)c3cscn3)C[C@@]1([H])O[C@H](c1ccncn1)C2` | - | 23.4% | - |
| `O=C(O)C(F)(F)F.O=C1NC2(CCN(CCO)CC2)CC1c1ccccc1` (centres undefined) | - | 19.68% and 8.119% | - |
| `Cn1ncc2c(NCCOc3ccc(F)cc3)nc(C3CCCC3)nc21` | 11.54% | 50.15% | 11.73% |
| `Cc1ccc(C(=O)N2CCc3c(CNc4ncccn4)cncc3C2)o1.Cl` | - | 7.069% | - |
| `COCCOc1cc(C(=O)N2CC(C)c3ccccc32)ccn1` (centres undefined) | 5% | 3.67% | 5.104% |
| `[H][C@]12CC[C@]([H])(CN(Cc3ncc[nH]3)C1)N(Cc1c(C)noc1C)C2=O` | - | 17.97% | - |
| `O=C(O)C(F)(F)F.O=C1CC[C@]2(CC[C@@H](NC3CCOCC3)CC2)N1Cc1ccccc1` | - | -2.408% | - |
| `[H][C@]12CC[C@]([H])(CN(S(=O)(=O)N(C)C)C1)N(CCC(=O)NCc1ccco1)C2` | - | -1.713% | - |
| `O=C(O)C(F)(F)F.O=C(O)C(F)(F)F.O=C1CCC2(CCCN(Cc3nccs3)C2)N1CC1CC1` (centres undefined) | - | 7.554% | - |
| `CCN(CC)C(=O)Cn1ccc2cc(NC(=O)COC)ccc21` | 25% | 22.47% | 6.971% |
| `CCOC(=O)C1CN(CC2CC2)Cc2ncn(CC)c21.O=C(O)C(F)(F)F` (centres undefined) | - | -1.046% | - |
| `Cc1c(C(=O)N2CCC(O)(CN(C)C)C2)c2cc(O)ccc2n1C` (centres undefined) | 48.68% | 13.69% | -1.869% |
| `CCSc1nnc(N(CCC#N)CCC#N)s1` | -2.083% | -2.713% | -7.365% |

The first 3 entries again:

| structure | LiHisRS | Leishmania in macrophages | CoaBC |
|---|---|---|---|
| `CCCN1CCC(NC(=O)Nc2ccc(OC)c(OC)c2)CC1` | 1.333% | 8.2% | -1.24% |
| `Cc1cccc(OCCC(=O)N2CCCN(C(N)=O)CC2)c1C` | -3.371% | -2.391% | 0.2571% |
| `NC(=O)CN1CCCN(C(=O)c2ccn(-c3cccc(F)c3)n2)CC1` | 20.19% | 15.06% | 5.485% |

Measurements from “University of Dundee, Small-Polar-MMV Screening Library” (2021), ChEMBL document CHEMBL3988442.